Results published in patent US11149071B2, “Fusion protein Slit2D2(C386S)-HSA and use thereof in prevention and/or treatment of lung inflammation” (Asclepius (Suzhou) Technology Company Group Co., Ltd., priority 2017, dated 2021).
At least one structure is not confirmed: it was looked up by name or label, or the drawing left a doubt.

System: lipopolysaccharide-induced lung injury
Test: rat model of acute lung injury induced by airway infusion of LPS; differential cell counts in BALF
Assay type: in vivo, Wistar rat
Settings: dexamethasone 1 mg/kg, 16 hours and 3 hours before LPS perfusion; BALF 4 hours after LPS; vs LPS model group (FIG. 4)
Procedure: Acute lung injury (ALI) is a systemic uncontrolled inflammatory response caused by various direct and indirect injury factors, accompanied by alveolar epithelial cells and capillary endothelial cell injury, its pathogenesis is still unclear, and there is still no effective treatment means. A rat model with airway infusion of lipopolysaccharide (LPS) is a commonly used animal model. In this study, airway infusion of LPS induced acute lung injury in rats. The animals were injected compounds via tail vein. After four hours, lung lavage and bronchoalveolar lavage fluid were collected, and differential cell were counts and measured to represent the efficacy of test compounds in preventing lipopolysaccharide-induced lung injury.
Except for group 1, all other groups were received pulmonary perfusion of lipopolysaccharide. Animals were anesthetized by 3-5% isoflurane, and 100 μl of LPS solution (1 mg/ml) was introduced into rat trachea with a micro-atomizer intubation, and after 4 hours, the animals were killed with chloral hydrate (750 mg/kg). The lungs were gently perfused three times in situ with 4 ml of PBS+1% albumin. After lavage, bronchoalveolar lavage fluid (BALF) was preserved in ice, and then the number of eosinophils (EOS), macrophages (Mac), neutrophils (Neu), lymphocytes (Lym) and the total number of cells were measured.

SMILES: C[C@@H]1C[C@H]2[C@@H]3CCC4=CC(=O)C=C[C@]4(C)[C@@]3(F)[C@@H](O)C[C@]2(C)[C@@]1(O)C(=O)CO [dexamethasone, reference compound]
- number of neutrophils in bronchoalveolar lavage fluid: significantly reduced
- total number of cells in bronchoalveolar lavage fluid: significantly reduced
